From publication PMC6757106, “Prokaryotic soluble overexpression and purification of oncostatin M using a fusion approach and genetically engineered E. coli strains” (Scientific Reports, 2019)
These are yes or no findings as the source states them, for the method shown. Some entries that bind do so weakly or less than the wild type. Where a sequence is shown, tags or fusion partners need not be part of it.

Target: Human Oncostatin M (OSM), tag-free, purified from the His6-OSM fusion expressed in Origami 2 (human) (UniProt P13725)
Assay: non-reducing SDS-PAGE; final purified tag-free OSM run on 10% tricine SDS-PAGE under reducing and non-reducing conditions, Coomassie stained; both purified

- binding: binds weakly
B1: Human Oncostatin M (OSM), tag-free, purified from the His6-OSM fusion expressed in Origami 2 (ligand, UniProt P13725 26-221, looked up)
chain: AAIGSCSKEYRVLLGQLQKQTDLMQDTSRLLDPYIRIQGLDVPKLREHCRERPGAFPSEETLRGLGRRGFLQTLNATLGCVLHRLADLEQRLPKAQDLERSGLNIEDLEKLQMARPNILGLRNNIYCMAQLLDNSDTAEPTKAGRGASQPPTPTPASDAFQRKLEGCRFLHGYHRFMHSVGRVFSKWGESPNRSRR
notes: Oncostatin M, human; Tag removed with TEV protease at ENLYFQ/G; a glycine probably stays at the N-terminus (surmised from the cysteine numbering); Printed size 22.05 kDa; also called His6 fusion-derived OSM; OSM purified from His-OSM; source: E. coli Origami 2(DE3), 18 °C, purified (IMAC with 2 M urea, TEV protease cleavage, second IMAC); not shown: His6, N-terminal, cleaved
